Common to all, as to experiment: odorant receptor activation (CRE luciferase / Renilla) (fold of no-odor wells); higher = more activation
Holding throughout (details): 100 µM

The test system of assay [1] is OR2T5 clone 1495.
Assay [2] has as its system OR2T5 clone 1496.
In assay [3] the test system is OR2T6 N21D/C23G/S243A clone 1432.
For assay [4], the system named is OR2T8 clone 1576.
Assay [5] relates to OR2V1 clone 1718.
Assay [6] concerns OR2W1 D296N clone 1536.
The subject of assay [7] is OR2W1 clone 1067.
Assay [8] concerns OR2W3 Indel clone 1491.
Assay [9] concerns OR2W5 clone 1506.
The subject of assay [10] is OR2Y1 V200L clone 1069.
In assay [11] the test system is OR2Z1 clone 1296.
For assay [12], the system named is OR3A1 clone 1288.
Assay [13] deals with OR3A2 clone 1286.
Assay [14] concerns OR3A3 clone 1549.
Assay [15] deals with OR3A4 I42V/S86R/E103Q/I120V/P168T/N175S clone 1550.
Assay [16] deals with OR4A15 A257V clone 1216.
Assay [17] deals with OR4A16 clone 1518.
The test system of assay [18] is OR4A4 clone 1134.
The test system of assay [19] is OR4A47 I104L/V145M clone 1579.
Assay [20] concerns OR4A5 clone 1637.

Where “and” joins values, the source holds several entries; their conditions need not be identical. Equal values may be shown once. This is one part of the list. Each value is one well over the wells without odorant, computed here; the data are noisy.

7 compounds from the odorant receptor screen of Mainland et al. (2015) can be followed below.

With `C=CC(C)(O)CCC=C(C)C` (stereo not given) [linalool], the odorant receptor activation amounted to 1.24 in assay [1]; 1.08 in assay [2]; 0.995 in [3]; 0.902 in assay [4]; 1.15 in assay [5]; 1.39 in [6]. The odorant receptor activation in assay [7] was 1.01 and 1.82; in assay [8], 1.06; in assay [9], 0.91; in assay [10], 1.36; in [11] it was 0.648; in assay [12], 0.819. The odorant receptor activation in assay [13] is 1.06; in assay [14] it was 0.736; in [15], 0.746; in assay [16], 0.926; in assay [17] it was 0.951; in assay [18], 0.99. The odorant receptor activation is 1.06 in assay [19] and 0.995 in assay [20].

For the compound `CCCCCCCC=O` [octyl aldehyde], the odorant receptor activation in assay [1] came to 0.887; in [2], 1.29; in [3] it was 0.736; in assay [4] it was 0.771; in assay [5], 0.681; in assay [6], 1.56. Also, the odorant receptor activation in [7] is 1.2 and 2; in [8], 0.788; in assay [9], 0.72; in assay [10], 1.22; in [11], 0.728; in assay [12] it was 1.06. The odorant receptor activation is 0.957 in [13]; 0.841 in assay [14]; 0.873 in [15]; 1.02 in assay [16]; 1.01 in assay [17]; 0.977 in assay [18]. Also, the odorant receptor activation in [19] worked out at 0.826; in [20] it was 0.841.

`c1ccc(Oc2ccccc2)cc1` [diphenyl ether]: the odorant receptor activation came out at 0.993 in assay [1]; 1.26 in [2]; 0.979 in assay [3]; 0.827 in [4]; 0.771 in assay [5]; 1.53 in [6]. For the same compound, the odorant receptor activation is 1.79 and 1.85 in assay [7]; 1.21 in assay [8]; 1.09 in [9]; 0.857 in [10]; 0.851 in assay [11]; 1.01 in [12]. The odorant receptor activation in [13] is 0.865; in assay [14], 0.836; in assay [15], 0.909; in assay [16], 1.14; in [17], 1.15; in [18], 1.08. For the same compound, the odorant receptor activation in assay [19] was 0.65; in assay [20] it was 1.1.

For the compound `CC1=CCC(C(C)(C)O)CC1` (stereo not given) [terpineol], the odorant receptor activation in assay [1] is 0.794; in assay [2] it was 1.16; in [3] it was 0.828; in [4], 0.953; in assay [5], 1.12; in [6] it was 1.67. Also, the odorant receptor activation in [7] is 1.57 and 2.13; in [8], 0.663; in [9], 0.676; in [10], 0.755; in [11], 0.879; in assay [12] it was 0.781. Besides, the odorant receptor activation in [13] came out at 0.786; in [14], 0.667; in assay [15] it was 0.684; in assay [16], 1.16; in assay [17], 0.831; in [18], 1.48. In addition, the odorant receptor activation in assay [19] is 0.901; in assay [20], 0.549.

For the compound `C=C(C)C1CC=C(C)C(=O)C1` (stereo not given) [r-carvone], the odorant receptor activation in assay [1] worked out at 0.955; in [2], 1.04; in [3] it was 0.992; in [4], 0.72; in assay [5], 0.665; in assay [6] it was 2.54. The odorant receptor activation in assay [7] is 1.13 and 2.28; in [8] it was 0.793; in assay [9] it was 1.02; in [10], 0.794; in assay [11], 0.716; in [12], 0.691. Also, the odorant receptor activation amounted to 0.746 in assay [13]; 1.01 in [14]; 0.952 in [15]; 1.16 in [16]; 0.749 in assay [17]; 1.34 in assay [18]. For the same compound, the odorant receptor activation is 0.772 in [19] and 0.677 in assay [20].

`CCCC(=O)O` [butyric acid]: the odorant receptor activation in assay [1] is 0.83; in assay [2], 0.923; in assay [3], 0.177; in assay [4], 1.13; in assay [5] it was 0.854; in assay [6], 0.872. Moreover, the odorant receptor activation was 0.699 and 1.07 in assay [7]; 0.817 in [8]; 0.946 in assay [9]; 1.55 in [10]; 0.855 in assay [11]; 0.976 in [12]. Besides, the odorant receptor activation in assay [13] amounted to 0.706; in assay [14], 1.05; in [15] it was 1.3; in [16], 1.07; in assay [17], 1.25; in [18] it was 1.09. Besides, the odorant receptor activation in assay [19] is 0.876; in assay [20], 0.801.

Turning to `CC(C)=CCCC(C)=CC=O` [citral], the odorant receptor activation in assay [1] stood at 1.16; in assay [2] it was 0.968; in assay [3], 0.212; in [4] it was 1.08; in assay [5] it was 1.2; in assay [6], 2.08. Also, the odorant receptor activation was 1.99 and 2.72 in assay [7]; 1.09 in assay [8]; 0.943 in assay [9]; 1.18 in [10]; 0.941 in assay [11]; 1.25 in assay [12]. Further, the odorant receptor activation in assay [13] is 1.02; in assay [14], 1.3; in assay [15] it was 1.01; in assay [16], 0.858; in [17], 0.903; in assay [18], 0.863. The odorant receptor activation in [19] was 0.736; in [20] it was 4.19.
